Measurements as given in publication PMC9489782.
Results are given in words; binding and its absence hold for the method and conditions named.

Sequences of proteins named here, by UniProt entry; tags and fusion partners are left off. Residues count along the entry.
UniProt Q9BXP8, residues 235-1791: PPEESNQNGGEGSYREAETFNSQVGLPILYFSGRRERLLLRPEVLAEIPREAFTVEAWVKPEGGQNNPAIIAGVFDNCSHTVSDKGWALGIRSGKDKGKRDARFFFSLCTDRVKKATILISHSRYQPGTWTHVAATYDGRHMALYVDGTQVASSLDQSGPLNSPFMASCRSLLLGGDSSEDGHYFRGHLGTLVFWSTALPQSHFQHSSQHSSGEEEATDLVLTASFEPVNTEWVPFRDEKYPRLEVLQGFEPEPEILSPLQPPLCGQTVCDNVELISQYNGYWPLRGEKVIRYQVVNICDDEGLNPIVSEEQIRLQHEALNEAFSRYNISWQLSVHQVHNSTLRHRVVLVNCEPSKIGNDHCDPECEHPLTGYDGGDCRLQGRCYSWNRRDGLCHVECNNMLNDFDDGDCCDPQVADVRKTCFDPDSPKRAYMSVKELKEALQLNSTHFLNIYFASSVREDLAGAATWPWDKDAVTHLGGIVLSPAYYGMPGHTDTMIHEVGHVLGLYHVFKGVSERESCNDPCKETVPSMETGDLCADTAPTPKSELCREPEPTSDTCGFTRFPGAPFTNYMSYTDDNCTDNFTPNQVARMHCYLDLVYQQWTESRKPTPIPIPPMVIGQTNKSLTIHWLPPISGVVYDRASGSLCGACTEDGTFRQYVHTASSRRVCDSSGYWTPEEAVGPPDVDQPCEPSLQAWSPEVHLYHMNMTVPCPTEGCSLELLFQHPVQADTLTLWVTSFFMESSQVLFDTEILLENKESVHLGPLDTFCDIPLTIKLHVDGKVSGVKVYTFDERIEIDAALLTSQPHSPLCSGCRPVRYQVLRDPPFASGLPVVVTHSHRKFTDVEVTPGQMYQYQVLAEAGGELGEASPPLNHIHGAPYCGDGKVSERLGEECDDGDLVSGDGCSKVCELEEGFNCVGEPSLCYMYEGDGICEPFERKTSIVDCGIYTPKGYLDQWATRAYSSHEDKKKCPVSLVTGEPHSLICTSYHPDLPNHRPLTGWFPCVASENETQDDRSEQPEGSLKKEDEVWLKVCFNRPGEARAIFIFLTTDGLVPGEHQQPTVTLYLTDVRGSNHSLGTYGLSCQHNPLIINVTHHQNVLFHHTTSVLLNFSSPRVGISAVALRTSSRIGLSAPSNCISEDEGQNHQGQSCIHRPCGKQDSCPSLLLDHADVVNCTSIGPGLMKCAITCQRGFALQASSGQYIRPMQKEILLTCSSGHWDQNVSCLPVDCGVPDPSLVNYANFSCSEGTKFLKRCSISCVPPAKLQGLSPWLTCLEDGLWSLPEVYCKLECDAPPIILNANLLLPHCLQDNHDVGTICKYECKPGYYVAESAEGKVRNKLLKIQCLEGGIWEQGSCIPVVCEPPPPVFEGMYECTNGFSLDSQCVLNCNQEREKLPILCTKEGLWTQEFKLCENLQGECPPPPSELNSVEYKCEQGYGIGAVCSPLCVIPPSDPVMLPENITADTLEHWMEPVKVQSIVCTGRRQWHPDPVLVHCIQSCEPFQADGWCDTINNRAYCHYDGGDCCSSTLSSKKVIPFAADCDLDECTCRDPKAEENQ

Target: WT PAPP-A2 (human) (UniProt Q9BXP8)
Test: SEC-MALS; Superdex200 Increase 10/300 GL in PBS, 0.5 mL/min; PAPP-A and PAPP-A (E483A) 100 uL of 1 mg/mL; PAPP-A2 100 uL of 1, 3 and 6 mg/mL; both purified

WT PAPP-A2 (from UniProt Q9BXP8 235-1791) (enzyme)
binding: no binding (tested: 1 mg/mL, 3 mg/mL, and 6 mg/mL)
